Results on 66 sequences are retold here after PubChem BioAssay AID1347423 (Functional Genomics Laboratory (NCATS/FGL), 2020).

In all, about 52,000 sequences went through this assay and about 210 (0.4%) were called active.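 How the source made its calls: active means gene whose silencing raises cell survival under the drug, median off-target-corrected z-score across its silencing RNAs 2 or more; inactive means the rest.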 This is one part of the list.

A short description of this experiment: Resistance to Poly (ADP-Ribose) Polymerase inhibitor: Gene Identification via Genome-wide siRNA Screen. The following applies: mouse BRCA2 R2336H ES cells, olaparib, CellTiter-Glo viability; hits give high values. The method, boiled down:
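Mouse BRCA2 R2336H ES cells were reverse-transfected with siRNA (20 nM final), treated at 48 h with 500 nM olaparib, and read by CellTiter-Glo after 72 h. Scores: MAD-based z per siRNA, median per gene, seed off-target correction.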
On the technique in general: In ATP-based viability assays light output follows the ATP content of the culture.
GCACUAUGUGGAGAGAUUGTT against Esrrb: the z-score is inactive: 0.946.
On to GGAUUUUAAACAAAAGACCTT against Stard13, for which the z-score is inactive: -1.05.
As for GGAAUUCAUGAAGACUUGGTT against Calb1, the z-score is inactive: 0.0977.
As for “GAGACACUUGUGCUGUAGGTT against F730035P03Rik”, the figure is inactive: 0.243; as for AUGGAGUCCUACAUUCUAGTT against LOC432582, inactive: -0.964; as for “GGAGGUCUACAUUUAUUAATT against 2500002K03Rik”, inactive: -0.962.
As for GGUAAUGUGCAACACUGUGTT against Zfp13, the figure is inactive: -0.189; as for GGAAGCUAGAUUUUGAGUATT against V1re11, inactive: 0.539; as for GGUGUUUCCAAUUAGGAAATT against Gjb1, inactive: 1.54.
Take “GGGCCUUCAAAACGAGAAGTT against 4732474A20Rik”: the z-score was inactive: -1.22.
As to GGUUAGUAGUCUUCUUAUCTT against Olfr1173, the z-score was inactive: 1.32.
As to GGAGAAAAUAGAGACUCAATT against Scg2, the z-score is inactive: 1.49.
As for GGUUCUAUUACAAGAAAGGTT against Enpp6, the figure is inactive: 1.05; as for CUGUUACCUAUCCCUCAUCTT against Sstr3, inactive: -0.647.
With GGAGCUAAAAGAGAUCAACTT against Bicd2 the figure was inactive: -0.649; with GGUUUAGAUGAUUUCUUCCTT against Ap3m1, inactive: -0.189.
As to GGAGAAGCUGAAAUUUCUGTT against Tesc, the z-score is inactive: -0.75.
GGUUGUCGCCAGAAUCAAGTT against Slc9a3r2: the z-score was inactive: 0.752.
With “GGACUCUUUUGGACCUAAGTT against 2310016C08Rik”, the z-score is inactive: 0.828.
As for CCCAUUUAAAUACAUACGATT against Ly9, the z-score is inactive: 1.31.
For the sequence “GAGAGUAUCACCUUCAUUUTT against 1810019J16Rik”, the z-score was inactive: -1.72.
In the case of GGUCACAGAAUGAAUGACUTT against Prss25, the z-score is inactive: 0.368.
For the sequence GCCCUCUGAUAUGUUGAACTT against Ppil5, the z-score was inactive: 1.06.
Turning to “GCAAGUCAUAACGAGGACUTT against 2310005E10Rik”, the z-score is inactive: -0.854.
As for “GGUGAAACUGGAAGAUUCUTT against 6030413G23Rik”, the z-score was inactive: 1.14.
As for GGGCAAGACUUAAUUUUGGTT against Dppa1, the z-score was inactive: 0.482.
Consider “GGAAAGUUGAUAGAAAGUGTT against D19Ertd386e”, for which the z-score is inactive: -0.602.
Regarding GGAUGACUGUUAUUUUUGUTT against Sema4g, the z-score was inactive: -0.237.
As to CGUGUAUCAUCUCAAGUGUTT against Lmo4, the z-score is inactive: 0.364.
On to GGUUGCUUCAUUGAUGUAUTT against Olfr867, for which the z-score is inactive: -0.825.
With GGAGUAGAAGAAGAGGAGUTT against Mrpl50 the figure was inactive: -0.751; with CGUACCUAAUCUGCCUAUCTT against Zic3, inactive: -0.299.
For “CGUACCUUUUUUAUCCUAATT against 6030445D17Rik”, the z-score was inactive: 1.46.
Turning to GGCUCAAAGCCAAUCUGAATT against Recql4, the z-score was inactive: 1.31.
With “GGGUCAUGUAGGGAUAAAATT against D430026P16Rik” the figure was inactive: -0.63; with GGUGUAUCAGAGGCAGAUUTT against LOC278676, inactive: -2.23.
On to “GGUAAAUGGUUUAACUACGTT against B930062P21Rik”, for which the z-score is inactive: -0.384.
GGUCAUUUCUGGCAAGGUUTT against Adpn: the z-score is inactive: 0.131.
On to “GGGAGAAGAGAUUUUCUUGTT against 4932416N17Rik”, for which the z-score was inactive: 1.04.
As to CCUAGUAUAUCUGUGUUGUTT against Prkwnk1, the z-score is inactive: -0.586.
On to GCCACUCCUAUGAGUGUUATT against Pctk3, for which the z-score is inactive: 1.16.
As to CCAUUGAAGCCGAAUCAGATT against Slfn3, the z-score is inactive: -0.393.
Take GGAGGGAAGGCUGUGAAUATT against Syt7: the z-score was inactive: -1.69.
As for GGUUUGAUGUUAGACAACGTT against Trim34, the z-score was inactive: -0.72.
For the sequence GCACAAAUACACCAAUCUCTT against Eif2b5, the z-score is inactive: 1.01.
With GCUAUUGUUAUAGUAUCUGTT against Olfr688 the figure was inactive: 0.696; with GCACUUAGACUAUUCCAGGTT against Tph2, inactive: -0.375; with GGUGGAACUGACACAAGAATT against Gk2, inactive: -0.555.
CCAUUCAGUCGAUUACAUUTT against Chd9: the z-score is inactive: 0.519.
As for CCAAUGCACAGGUCAUCACTT against Lbx1h, the figure is inactive: -1.54; as for “GGCUGCUGGGAAAAUGUGGTT against 1700001F22Rik”, inactive: -0.485; as for GGUUGUGCAGGGAAACUUATT against Ap3m2, inactive: -1.9.
For the sequence GGAAGAAUUUAAGAAGUUCTT against Grp58, the z-score was inactive: 0.847.
Consider “CCAUUCCCGCAUCCAUGUGTT against 4930488P06Rik”, for which the z-score is inactive: -1.65.
Take GGAUUUACUGGGAAAGGUUTT against V1rg12: the z-score was inactive: -2.57.
“CGUAUUCCACUGCACUUUGTT against 2010321J07Rik”: the z-score was inactive: -0.428.
Turning to GCUCUGAUGGAACGCAUGATT against Sesn2, the z-score is inactive: 0.0971.
With “GGUUGUGACCGCCAUUUCUTT against 2610017G09Rik” the figure was inactive: 0.925; with GGAGGAAGUUACAGAUGUGTT against Nog, inactive: -1.31; with GGAAGAGAAAGAGGUCAGATT against Aptx, inactive: 0.319.
GGAACCACACAUGUGUUAATT against Grik2: the z-score is inactive: 0.0594.
As to “CCAAGUCUUGGAAAAUAACTT against 1700049M11Rik”, the z-score is inactive: -0.969.
As to GGAAGUGUAUAAUUUCCUGTT against Aco2, the z-score is inactive: 1.71.
Regarding CCAUGUUCAUCUUCUUGGGTT against Olfr76, the z-score was inactive: -1.14.
For the sequence GGAAGUAAUUCACAACCAGTT against Pfdn1, the z-score was inactive: 1.14.
On to “CCUUCGAGACCUGUUGUCUTT against 4832420M10”, for which the z-score is inactive: 1.63.
